Measurements: the supplement of paper PMC10849652
This is one part of the list.

Protein sequences, listed by entry. Tags and fused reporters are not part of them. Lines headed by an entry give the natural chain unless they say otherwise; changes in a name come on top.
UniProt Q8NI22: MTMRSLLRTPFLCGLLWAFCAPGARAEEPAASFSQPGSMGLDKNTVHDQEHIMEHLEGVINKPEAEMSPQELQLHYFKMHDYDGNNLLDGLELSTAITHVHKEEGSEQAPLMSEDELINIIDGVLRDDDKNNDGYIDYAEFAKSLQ
UniProt Q15648, whole entry, looked up: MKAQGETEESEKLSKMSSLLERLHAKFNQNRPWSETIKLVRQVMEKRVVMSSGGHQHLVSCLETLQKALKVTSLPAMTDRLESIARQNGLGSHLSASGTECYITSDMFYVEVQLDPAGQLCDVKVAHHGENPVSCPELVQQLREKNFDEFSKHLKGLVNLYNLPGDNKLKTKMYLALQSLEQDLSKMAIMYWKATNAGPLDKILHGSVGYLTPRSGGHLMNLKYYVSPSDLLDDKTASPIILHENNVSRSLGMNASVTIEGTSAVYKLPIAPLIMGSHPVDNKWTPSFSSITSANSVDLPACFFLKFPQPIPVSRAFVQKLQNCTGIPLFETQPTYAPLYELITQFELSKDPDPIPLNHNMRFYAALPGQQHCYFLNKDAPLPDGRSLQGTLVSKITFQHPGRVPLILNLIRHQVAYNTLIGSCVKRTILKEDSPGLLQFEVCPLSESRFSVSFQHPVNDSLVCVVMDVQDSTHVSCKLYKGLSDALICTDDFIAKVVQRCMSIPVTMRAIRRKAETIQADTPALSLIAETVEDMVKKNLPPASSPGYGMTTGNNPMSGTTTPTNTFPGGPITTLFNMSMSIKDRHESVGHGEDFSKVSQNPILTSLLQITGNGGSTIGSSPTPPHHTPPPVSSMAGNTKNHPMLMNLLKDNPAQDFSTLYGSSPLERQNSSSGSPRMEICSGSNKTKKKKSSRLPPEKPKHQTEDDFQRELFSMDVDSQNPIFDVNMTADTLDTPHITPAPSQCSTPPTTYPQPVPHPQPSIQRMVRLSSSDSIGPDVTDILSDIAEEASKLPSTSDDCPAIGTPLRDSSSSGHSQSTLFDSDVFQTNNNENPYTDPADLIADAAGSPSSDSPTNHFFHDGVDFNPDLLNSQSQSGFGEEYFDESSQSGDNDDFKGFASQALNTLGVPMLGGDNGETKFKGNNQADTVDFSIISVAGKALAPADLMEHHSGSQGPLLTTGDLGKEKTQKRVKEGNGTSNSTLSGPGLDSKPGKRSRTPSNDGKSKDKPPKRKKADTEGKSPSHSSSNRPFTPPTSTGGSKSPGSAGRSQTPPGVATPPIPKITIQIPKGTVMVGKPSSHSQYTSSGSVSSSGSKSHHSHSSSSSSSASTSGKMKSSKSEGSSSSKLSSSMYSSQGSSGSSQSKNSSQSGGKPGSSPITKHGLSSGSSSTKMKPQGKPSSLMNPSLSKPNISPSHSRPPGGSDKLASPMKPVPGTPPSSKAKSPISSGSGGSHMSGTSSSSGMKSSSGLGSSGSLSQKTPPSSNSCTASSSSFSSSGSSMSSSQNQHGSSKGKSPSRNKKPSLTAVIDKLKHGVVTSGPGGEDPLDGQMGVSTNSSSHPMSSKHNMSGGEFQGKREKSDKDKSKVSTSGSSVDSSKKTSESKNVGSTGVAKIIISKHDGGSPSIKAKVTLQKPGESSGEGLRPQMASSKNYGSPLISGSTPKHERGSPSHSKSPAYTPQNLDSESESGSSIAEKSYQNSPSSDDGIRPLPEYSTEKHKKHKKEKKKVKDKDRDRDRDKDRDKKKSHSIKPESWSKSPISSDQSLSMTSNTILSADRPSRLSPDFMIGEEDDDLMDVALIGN
UniProt P51608, whole entry, looked up: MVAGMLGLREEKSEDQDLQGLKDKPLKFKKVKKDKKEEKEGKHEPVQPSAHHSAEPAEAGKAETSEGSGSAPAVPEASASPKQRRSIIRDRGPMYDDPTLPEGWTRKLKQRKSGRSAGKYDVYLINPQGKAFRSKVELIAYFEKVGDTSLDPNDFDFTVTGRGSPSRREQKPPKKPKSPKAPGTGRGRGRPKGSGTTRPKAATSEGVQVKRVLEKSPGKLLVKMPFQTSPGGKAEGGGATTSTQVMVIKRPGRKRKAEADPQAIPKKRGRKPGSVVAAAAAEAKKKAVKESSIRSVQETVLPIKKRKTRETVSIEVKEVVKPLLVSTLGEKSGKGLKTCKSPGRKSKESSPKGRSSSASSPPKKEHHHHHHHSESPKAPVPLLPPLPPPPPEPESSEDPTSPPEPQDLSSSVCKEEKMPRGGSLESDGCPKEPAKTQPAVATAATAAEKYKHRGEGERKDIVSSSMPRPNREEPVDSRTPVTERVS
UniProt Q9BTT4: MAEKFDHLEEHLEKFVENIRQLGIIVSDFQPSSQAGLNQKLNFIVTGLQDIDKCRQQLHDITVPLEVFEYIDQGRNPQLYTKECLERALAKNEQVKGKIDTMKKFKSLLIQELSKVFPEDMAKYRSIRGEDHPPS
UniProt Q9UBP6: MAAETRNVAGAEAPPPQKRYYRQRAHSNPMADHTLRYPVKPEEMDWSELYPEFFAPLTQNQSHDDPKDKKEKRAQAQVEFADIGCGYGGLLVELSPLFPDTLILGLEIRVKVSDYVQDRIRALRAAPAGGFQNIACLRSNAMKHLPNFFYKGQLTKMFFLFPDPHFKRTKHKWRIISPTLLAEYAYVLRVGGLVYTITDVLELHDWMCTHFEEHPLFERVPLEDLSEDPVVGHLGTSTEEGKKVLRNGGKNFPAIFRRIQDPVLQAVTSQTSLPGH
UniProt Q9GZY8: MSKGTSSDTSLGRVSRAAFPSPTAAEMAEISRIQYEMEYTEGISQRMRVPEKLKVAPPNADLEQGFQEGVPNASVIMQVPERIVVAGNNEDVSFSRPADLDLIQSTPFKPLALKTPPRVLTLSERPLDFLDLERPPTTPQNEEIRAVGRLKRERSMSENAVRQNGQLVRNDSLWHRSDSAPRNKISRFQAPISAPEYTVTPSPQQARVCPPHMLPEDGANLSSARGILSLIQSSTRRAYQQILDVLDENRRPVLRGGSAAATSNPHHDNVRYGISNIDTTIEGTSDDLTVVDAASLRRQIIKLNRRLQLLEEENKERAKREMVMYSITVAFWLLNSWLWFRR
UniProt Q6P2C8: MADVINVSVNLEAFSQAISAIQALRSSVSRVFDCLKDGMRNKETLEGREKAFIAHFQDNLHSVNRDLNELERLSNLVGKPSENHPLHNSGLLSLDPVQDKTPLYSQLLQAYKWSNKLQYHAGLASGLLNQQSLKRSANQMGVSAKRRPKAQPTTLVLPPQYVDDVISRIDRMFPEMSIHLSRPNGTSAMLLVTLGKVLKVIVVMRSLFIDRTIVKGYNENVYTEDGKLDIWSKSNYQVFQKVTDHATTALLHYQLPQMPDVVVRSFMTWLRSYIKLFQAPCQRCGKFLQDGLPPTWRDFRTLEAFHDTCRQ
UniProt Q9NR56: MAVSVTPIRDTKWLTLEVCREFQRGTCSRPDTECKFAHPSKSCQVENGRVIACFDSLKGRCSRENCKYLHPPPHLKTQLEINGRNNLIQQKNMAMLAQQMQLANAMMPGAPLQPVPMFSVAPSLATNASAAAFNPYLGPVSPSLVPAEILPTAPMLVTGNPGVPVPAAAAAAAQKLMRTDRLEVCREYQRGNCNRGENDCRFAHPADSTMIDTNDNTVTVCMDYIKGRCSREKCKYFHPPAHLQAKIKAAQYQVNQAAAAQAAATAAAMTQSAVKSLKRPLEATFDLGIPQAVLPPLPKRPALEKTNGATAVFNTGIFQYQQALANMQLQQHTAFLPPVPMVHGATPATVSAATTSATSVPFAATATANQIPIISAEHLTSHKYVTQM
UniProt Q15528: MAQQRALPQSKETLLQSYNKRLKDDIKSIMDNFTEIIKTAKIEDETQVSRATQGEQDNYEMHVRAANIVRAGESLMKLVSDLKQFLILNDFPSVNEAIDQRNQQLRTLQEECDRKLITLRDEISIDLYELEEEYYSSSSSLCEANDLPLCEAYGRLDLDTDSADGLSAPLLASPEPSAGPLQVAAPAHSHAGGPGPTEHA
UniProt O14770: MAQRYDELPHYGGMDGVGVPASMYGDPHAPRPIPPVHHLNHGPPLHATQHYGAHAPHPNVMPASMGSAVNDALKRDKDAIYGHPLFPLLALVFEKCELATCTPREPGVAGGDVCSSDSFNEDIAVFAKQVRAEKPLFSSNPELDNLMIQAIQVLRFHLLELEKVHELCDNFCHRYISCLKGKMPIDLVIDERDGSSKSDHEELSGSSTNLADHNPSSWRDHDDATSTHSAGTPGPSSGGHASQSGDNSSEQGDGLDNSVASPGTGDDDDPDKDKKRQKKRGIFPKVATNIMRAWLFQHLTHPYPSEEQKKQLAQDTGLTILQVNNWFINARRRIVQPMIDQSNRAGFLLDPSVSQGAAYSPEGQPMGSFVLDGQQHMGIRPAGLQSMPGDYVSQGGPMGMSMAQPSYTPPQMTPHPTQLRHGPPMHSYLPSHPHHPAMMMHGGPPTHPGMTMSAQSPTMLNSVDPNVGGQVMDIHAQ
UniProt Q9BUT9: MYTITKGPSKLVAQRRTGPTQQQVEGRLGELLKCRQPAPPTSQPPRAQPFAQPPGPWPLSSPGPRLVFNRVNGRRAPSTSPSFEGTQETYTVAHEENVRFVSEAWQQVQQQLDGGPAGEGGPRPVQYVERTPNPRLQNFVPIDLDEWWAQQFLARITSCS
UniProt Q14676: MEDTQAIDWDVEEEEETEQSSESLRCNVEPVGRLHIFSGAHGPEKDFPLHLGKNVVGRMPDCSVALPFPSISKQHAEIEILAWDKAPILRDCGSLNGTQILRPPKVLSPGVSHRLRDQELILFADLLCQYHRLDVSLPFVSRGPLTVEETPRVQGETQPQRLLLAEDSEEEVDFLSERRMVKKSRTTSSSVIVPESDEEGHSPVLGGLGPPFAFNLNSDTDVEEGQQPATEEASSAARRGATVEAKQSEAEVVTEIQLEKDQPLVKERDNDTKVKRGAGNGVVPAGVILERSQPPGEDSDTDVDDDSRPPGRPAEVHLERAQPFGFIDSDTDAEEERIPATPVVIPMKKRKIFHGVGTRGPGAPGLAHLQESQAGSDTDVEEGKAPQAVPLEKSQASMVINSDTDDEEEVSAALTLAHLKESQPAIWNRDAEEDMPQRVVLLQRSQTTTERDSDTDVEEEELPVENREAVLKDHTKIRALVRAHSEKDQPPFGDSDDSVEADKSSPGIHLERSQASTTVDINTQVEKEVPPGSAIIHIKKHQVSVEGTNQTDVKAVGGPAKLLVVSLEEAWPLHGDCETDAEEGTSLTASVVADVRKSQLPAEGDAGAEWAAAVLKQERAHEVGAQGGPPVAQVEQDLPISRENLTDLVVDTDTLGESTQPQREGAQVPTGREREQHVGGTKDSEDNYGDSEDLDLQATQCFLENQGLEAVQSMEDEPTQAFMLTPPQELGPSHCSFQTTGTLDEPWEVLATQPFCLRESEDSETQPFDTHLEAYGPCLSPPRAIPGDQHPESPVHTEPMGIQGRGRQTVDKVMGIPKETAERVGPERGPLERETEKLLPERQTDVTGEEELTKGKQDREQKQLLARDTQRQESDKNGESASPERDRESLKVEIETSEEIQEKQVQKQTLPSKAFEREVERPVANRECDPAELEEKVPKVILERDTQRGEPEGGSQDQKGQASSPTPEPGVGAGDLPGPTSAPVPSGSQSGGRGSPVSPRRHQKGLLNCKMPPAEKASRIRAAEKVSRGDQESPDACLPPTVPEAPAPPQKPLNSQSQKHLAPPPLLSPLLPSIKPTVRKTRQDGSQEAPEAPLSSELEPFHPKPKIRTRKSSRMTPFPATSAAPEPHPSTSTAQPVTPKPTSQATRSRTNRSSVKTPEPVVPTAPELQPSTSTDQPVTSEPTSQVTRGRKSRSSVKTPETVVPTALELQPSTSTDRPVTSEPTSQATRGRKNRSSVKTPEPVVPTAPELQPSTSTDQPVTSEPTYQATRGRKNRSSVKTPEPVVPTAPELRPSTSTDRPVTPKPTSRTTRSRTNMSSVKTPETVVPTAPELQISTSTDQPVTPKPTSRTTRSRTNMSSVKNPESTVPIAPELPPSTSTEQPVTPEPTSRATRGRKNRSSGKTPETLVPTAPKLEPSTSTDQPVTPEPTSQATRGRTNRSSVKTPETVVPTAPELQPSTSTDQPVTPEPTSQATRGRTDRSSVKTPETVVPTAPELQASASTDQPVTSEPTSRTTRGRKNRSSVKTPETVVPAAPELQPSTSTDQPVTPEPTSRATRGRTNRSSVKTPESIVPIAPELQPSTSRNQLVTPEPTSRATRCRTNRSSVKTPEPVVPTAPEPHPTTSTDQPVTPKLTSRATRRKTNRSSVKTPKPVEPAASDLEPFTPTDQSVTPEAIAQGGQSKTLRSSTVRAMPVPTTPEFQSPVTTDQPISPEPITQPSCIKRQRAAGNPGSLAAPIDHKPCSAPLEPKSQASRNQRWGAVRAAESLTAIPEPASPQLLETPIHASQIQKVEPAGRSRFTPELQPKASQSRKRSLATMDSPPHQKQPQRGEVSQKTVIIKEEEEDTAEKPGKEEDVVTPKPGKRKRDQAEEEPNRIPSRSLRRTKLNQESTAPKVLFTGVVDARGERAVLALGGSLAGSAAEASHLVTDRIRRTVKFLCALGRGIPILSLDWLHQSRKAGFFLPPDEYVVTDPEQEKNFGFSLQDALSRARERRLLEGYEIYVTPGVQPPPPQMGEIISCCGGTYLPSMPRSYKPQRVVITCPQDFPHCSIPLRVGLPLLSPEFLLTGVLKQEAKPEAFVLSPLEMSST

How the values were obtained:
Assay in all cases: log2 fold change, soluble protein after heating vs DMSO (PISA); higher = thermal stabilisation; K562 lysate, 10 uM; active = over 0.2 and 3.5 SD of the protein, either way, in both replicates (recomputed)
erlotinib = compound: C#Cc1cccc(Nc2ncnc3cc(OCCOC)c(OCCOC)cc23)c1 [erlotinib]
Procedure, shortened: (§1)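 Quantification was by TMTpro 16plex LC-MS/MS with equalised channel sums, applied to the supernatant after 21,000xg for 90 min. Samples were crude K562 extract at 1 mg/mL protein in PBS pH 7.4 with 1 mM MgCl2, treated with 10 μM compound for 30 min, heated for 3 min across 48°C-58°C, pooled and brought to 0.5% NP-40 at 4°C. Values are log-two fold changes in thermal stability relative to solvent controls, from duplicates.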

[1] = compound: C/C(=N\NC(=O)C1=CC(=CC=C1)S(=O)(=O)N2CCOCC2)/C3=C(C=CC(=C3)Cl)O
Procedure, shortened: as §1

[2] = compound: C1=CC(=CC=C1C2=NC3=C(N2)C=C(C=C3)C(=O)N)OC4=CC=C(C=C4)Cl
Procedure, shortened: as §1

[3] = compound: C1=CC2=C(C=CC(=C2)/C=C\3/C(=O)NC(=NCC4=CC=CS4)S3)N=C1
Procedure, shortened: as §1

[4] = compound: C1=CC2=NC=CN=C2C=C1/C=C/3\C(=O)NC(=O)S3
Procedure, shortened: as §1

[5] = compound: C1=CC=C(C=C1)C2=NC(=C(N2)C3=CC=NC=C3)C4=CC(=C(C=C4)Cl)O
Procedure, shortened: as §1

[6] = compound: C1=CC=C2C(=C1)C3=NNC4=CC=CC(=C43)C2=O
Procedure, shortened: as §1

[7] = compound: C1CCN(C1)C(=O)NC2=CC=CC(=C2)NC3=NC=C(C(=N3)NCCC4=CN=CN4)Br
Procedure, shortened: as §1

[8] = compound: C1CN(CCC1(CC2=CC=C(C=C2)Cl)N)C3=NC=NC4=C3C=CN4
Procedure, shortened: as §1

IRAK-1-4 Inhibitor I = compound: C1COCCN1CCN2C3=CC=CC=C3N=C2NC(=O)C4=CC(=CC=C4)[N+](=O)[O-] [IRAK-1-4 Inhibitor I]
Procedure, shortened: as §1

Measured: log2 fold change

MED15 (UniProt Q96RN5)
inactive: erlotinib 0.005 | [1] 0.005 | [2] -0.004 | [3] -0.006 | [4] -0.031 | [5] 0.001 | [6] 0 | [7] 0.017 | [8] 0 | IRAK-1-4 Inhibitor I -0.001

MCFD2 (UniProt Q8NI22)
inactive: erlotinib 0.251 | [1] -0.138 | [2] 0.031 | [3] 0.077 | [4] 0.003 | [5] 0.004 | [6] -0.088 | [7] 0.002 | [8] 0.075 | IRAK-1-4 Inhibitor I 0.011

MED1 (UniProt Q15648)
inactive: erlotinib -0.011 | [1] 0.042 | [2] 0.016 | [3] -0.021 | [4] 0.008 | [5] 0.027 | [6] -0.046 | [7] -0.004 | [8] -0.001 | IRAK-1-4 Inhibitor I 0.012

MBOAT2 (UniProt Q6ZWT7)
inactive: erlotinib -0.003 | [1] 0.014 | [2] -0.111 | [3] -0.022 | [4] -0.036 | [5] -0.007 | [6] -0.076 | [7] -0.148 | [8] -0.011 | IRAK-1-4 Inhibitor I -0.065

MECP2 isoform 2 (UniProt P51608)
inactive: erlotinib -0.007 | [1] -0.245 | [2] 0.004 | [3] 0.004 | [4] 0.035 | [5] 0.022 | [6] 0.026 | [7] -0.036 | [8] 0.053 | IRAK-1-4 Inhibitor I 0.012

MCM4 (UniProt P33991)
inactive: erlotinib 0.022 | [1] 0.036 | [2] -0.007 | [3] 0.024 | [4] 0.029 | [5] 0.028 | [6] 0.035 | [7] -0.017 | [8] -0.005 | IRAK-1-4 Inhibitor I -0.002

MED30 (UniProt Q96HR3)
inactive: erlotinib 0.036 | [1] -0.005 | [2] 0.03 | [3] 0.007 | [4] 0.044 | [5] -0.028 | [6] 0.055 | [7] -0.025 | [8] 0.007 | IRAK-1-4 Inhibitor I -0.025

MED10 (UniProt Q9BTT4)
inactive: erlotinib 0.049 | [1] -0.077 | [2] 0.044 | [3] 0.028 | [4] -0.149 | [5] -0.015 | [6] 0.029 | [7] 0.102 | [8] 0.101 | IRAK-1-4 Inhibitor I -0.022

METTL1 (UniProt Q9UBP6)
inactive: erlotinib -0.062 | [1] -0.049 | [2] -0.003 | [3] -0.002 | [4] -0.024 | [5] -0.003 | [6] 0.027 | [7] 0.022 | [8] -0.01 | IRAK-1-4 Inhibitor I 0.003

MCU (UniProt Q8NE86)
inactive: erlotinib 0.045 | [1] -0.028 | [2] -0.09 | [3] 0.02 | [4] 0.057 | [5] -0.035 | [6] 0.084 | [7] 0.055 | [8] 0.015 | IRAK-1-4 Inhibitor I 0.064

MATR3 (UniProt P43243)
inactive: erlotinib -0.018 | [1] 0.01 | [2] 0.094 | [3] -0.035 | [4] 0.01 | [5] -0.055 | [6] -0.03 | [7] 0.014 | [8] -0.004 | IRAK-1-4 Inhibitor I -0.013

MFF isoform 2 (UniProt Q9GZY8)
inactive: erlotinib 0.006 | [1] -0.056 | [2] 0.021 | [3] -0.009 | [4] -0.014 | [5] -0.035 | [6] -0.005 | [7] 0.024 | [8] 0.037 | IRAK-1-4 Inhibitor I 0.018

METTL18 (UniProt O95568)
inactive: erlotinib 0.004 | [1] 0.036 | [2] 0.047 | [3] 0.025 | [4] 0.034 | [5] 0.049 | [6] -0.013 | [7] -0.15 | [8] 0.026 | IRAK-1-4 Inhibitor I -0.029

MED27 (UniProt Q6P2C8)
inactive: erlotinib 0.02 | [1] -0.013 | [2] -0.001 | [3] 0 | [4] -0.004 | [5] 0 | [6] -0.018 | [7] -0.041 | [8] 0.034 | IRAK-1-4 Inhibitor I 0.048

MFSD5 isoform 2 (UniProt Q6N075)
inactive: erlotinib -0.06 | [1] 0.03 | [2] 0.043 | [3] -0.038 | [4] -0.027 | [5] 0.131 | [6] -0.054 | [7] 0.058 | [8] -0.029 | IRAK-1-4 Inhibitor I -0.011

MCM3 isoform 2 (UniProt P25205)
inactive: erlotinib 0.005 | [1] 0.013 | [2] 0 | [3] 0.002 | [4] 0.011 | [5] 0.003 | [6] 0.013 | [7] 0.011 | [8] 0.015 | IRAK-1-4 Inhibitor I -0.016

MBNL1 isoform 5 (UniProt Q9NR56)
inactive: erlotinib -0.014 | [1] -0.043 | [2] 0.051 | [3] -0.009 | [4] -0.023 | [5] -0.025 | [6] 0.04 | [7] -0.027 | [8] -0.02 | IRAK-1-4 Inhibitor I 0.011

MED17 (UniProt Q9NVC6)
inactive: erlotinib -0.017 | [1] 0.062 | [2] 0.019 | [3] 0.065 | [4] -0.017 | [5] 0.014 | [6] -0.055 | [7] -0.007 | [8] -0.03 | IRAK-1-4 Inhibitor I -0.012

MED22 isoform 2 (UniProt Q15528)
inactive: erlotinib 0.016 | [1] 0.016 | [2] -0.031 | [3] -0.004 | [4] -0.031 | [5] -0.078 | [6] 0.005 | [7] -0.037 | [8] 0.099 | IRAK-1-4 Inhibitor I 0.083

MED12 isoform 2 (UniProt Q93074)
inactive: erlotinib 0.007 | [1] -0.037 | [2] 0 | [3] 0.009 | [4] 0.008 | [5] 0.004 | [6] -0.025 | [7] -0.013 | [8] 0.011 | IRAK-1-4 Inhibitor I -0.035

Random excerpt: 2 records from the list
MATR3 (UniProt P43243)
inactive: erlotinib -0.018 | [1] 0.01 | [2] 0.094 | [3] -0.035 | [4] 0.01 | [5] -0.055 | [6] -0.03 | [7] 0.014 | [8] -0.004 | IRAK-1-4 Inhibitor I -0.013

MED15 (UniProt Q96RN5)
inactive: erlotinib 0.005 | [1] 0.005 | [2] -0.004 | [3] -0.006 | [4] -0.031 | [5] 0.001 | [6] 0 | [7] 0.017 | [8] 0 | IRAK-1-4 Inhibitor I -0.001

Next part.

MED4 (UniProt Q9NPJ6)
inactive: erlotinib -0.016 | [1] 0.005 | [2] 0.025 | [3] 0.027 | [4] -0.017 | [5] -0.002 | [6] -0.008 | [7] 0.042 | [8] 0.006 | IRAK-1-4 Inhibitor I 0.009

MEIS2 (UniProt O14770)
inactive: erlotinib 0.023 | [1] -0.074 | [2] -0.047 | [3] 0.008 | [4] -0.034 | [5] -0.001 | [6] 0.011 | [7] -0.111 | [8] -0.032 | IRAK-1-4 Inhibitor I -0.06

MED8 isoform 2 (UniProt Q96G25)
inactive: erlotinib 0.017 | [1] 0.007 | [2] -0.001 | [3] 0.021 | [4] 0.027 | [5] 0.008 | [6] 0 | [7] 0.014 | [8] 0.088 | IRAK-1-4 Inhibitor I -0.005

MCRIP2 (UniProt Q9BUT9)
inactive: erlotinib -0.038 | [1] -0.036 | [2] 0.109 | [3] -0.01 | [4] -0.041 | [5] 0.057 | [6] -0.005 | [7] 0.051 | [8] 0.03 | IRAK-1-4 Inhibitor I 0.013

MCM6 (UniProt Q14566)
inactive: erlotinib -0.011 | [1] -0.015 | [2] -0.003 | [3] -0.015 | [4] -0.006 | [5] -0.002 | [6] 0.006 | [7] -0.006 | [8] -0.038 | IRAK-1-4 Inhibitor I -0.015

MBD3 (UniProt O95983)
inactive: erlotinib -0.017 | [1] 0.146 | [2] -0.003 | [3] 0.051 | [4] -0.012 | [5] -0.033 | [6] 0 | [7] -0.011 | [8] -0.045 | IRAK-1-4 Inhibitor I -0.028

MCMBP isoform 2 (UniProt Q9BTE3)
inactive: erlotinib 0.084 | [1] 0.027 | [2] 0.282 | [3] -0.168 | [4] -0.156 | [5] -0.051 | [6] -0.411 | [7] 0.024 | [8] 0.055 | IRAK-1-4 Inhibitor I -0.016

MEA1 (UniProt Q16626)
inactive: erlotinib -0.015 | [1] -0.051 | [2] 0.008 | [3] -0.011 | [4] -0.08 | [5] -0.043 | [6] 0.009 | [7] 0.004 | [8] 0.007 | IRAK-1-4 Inhibitor I -0.028

MDC1 (UniProt Q14676)
inactive: erlotinib -0.012 | [1] 0.005 | [2] 0.028 | [3] 0.008 | [4] -0.016 | [5] -0.018 | [6] -0.034 | [7] -0.008 | [8] 0.007 | IRAK-1-4 Inhibitor I 0.021

MDH1 isoform 3 (UniProt P40925)
inactive: erlotinib -0.001 | [1] 0.02 | [2] 0.02 | [3] -0.042 | [4] 0 | [5] 0.002 | [6] 0.005 | [7] 0.003 | [8] 0.014 | IRAK-1-4 Inhibitor I 0.007
